# From PMC10564737, “Structure-based design of a phosphotyrosine-masked covalent ligand targeting the E3 ligase SOCS2” (Nature Communications, 2023)
# Sequences of proteins named here, by UniProt entry; tags and fusion partners are left off. Residues count along the entry.
# UniProt O14508, 32-198: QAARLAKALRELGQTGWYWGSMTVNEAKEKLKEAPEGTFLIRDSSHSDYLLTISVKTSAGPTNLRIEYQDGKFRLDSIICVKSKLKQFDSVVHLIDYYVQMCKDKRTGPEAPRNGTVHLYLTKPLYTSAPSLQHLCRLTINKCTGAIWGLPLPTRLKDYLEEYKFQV
# “And” between values parts separate entries of the source, which are not always exact repeats. Equal values may be shown once. The source gives many values for each of these; only a part stands here.
# Molecular target: T1, SBC2 (Homo sapiens, UniProt O14508)
# T1 construct: SOCS2 (amino acids 32–198); His6 (N, cleaved yes); made in house; host or cells: E. coli BL21(DE3)
# Assay: Covalent fluorescence polarization (FP) probe displacement assay
# Assay type: binding
# Description: With the specific covalent modification of Cys111 established, we decided to fully characterize MN551 as a covalent SOCS2 inhibitor. […] (Fig. 2g, h, Supplementary Fig. 9). Due to the covalent nature of the competing inhibitor, a time-dependent reduction in the fraction of protein-bound probe is observed. […] This value illustrates reasonable specificity for a covalent inhibitor, with nonetheless scope for future optimization. In addition to characterizing the kinetic covalency parameters, we have also assessed the stability of the MN551 by monitoring its reactivity (half-life >70 min) with reduced glutathione (GSH) (Supplementary Fig. 10)[35].
# To monitor the SBC2-ligand binding kinetics we designed a fluorescein-labeled small-molecule probe - compound 26. The fluorescence polarization (anisotropy) of a threefold serial dilution of 50 µM SBC2 in 10 nM of the probe in 100 mM HEPES pH 7.5, 50 mM NaCl, 0.5 mM TCEP, 2% DMSO was measured to determine the KL (Supplementary Fig. 9A) (BMG Labtech PHERAstar – firmware v1.33). Protein titration and the curves were fitted using GraphPad Prism 9, using one-site fitting models to determine the probe binding constant, KL. Samples were run in triplicate in 384 well plates, using a total volume per well of 16 μL. The bound fraction of the probe is measure using the equation:1 Fb=Af−A/Af−Ab Where,
# A time-dependent reduction in probe anisotropy were measured for a 2-fold serial dilution of […] compound MN551 in 10 nM probe +300 μM SBC2. To determine the initial reversible binding affinity, the initial bound fraction of the probe at time = 0, Fbo (the y-intercept in Fb v/s Time plot, Supplementary Fig. 9B) was plotted against MN551 concentration, and the obtained IC50 is then converted to Ki (Supplementary Fig. 9C)[17]. The slope from Fb versus time graph when divided by Fbo gives rate of covalency, kobs. A plot of kobs v/s MN551 concentration using Michaelis–Menten model of GraphPad Prism 9, provides the parameters kinact (maximum potential rate of inactivation) and KI (concentration of MN551 at which kobs = kinact/2) (Supplementary Fig. 9D, E).
# The observed first-order rate constant, kobs is related to KI and kinact by the equation:2 kobs=kinactI/KI+I
# At [I]«[KI] the above equation is converted to3 […]
# The slope from the plot of kobs against concentration of MN551 gives us the covalent efficiency parameter kinact/KI (Supp Fig. 9F)[30],[33].
# [1] = MN551 34.5716 nM, Cycle 8 (35 min)
# [2] = MN551 34.5716 nM, Cycle 9 (40 min)
# [3] = MN551 34.5716 nM, Cycle 10 (45 min)
# [4] = MN551 34.5716 nM, Cycle 11 (50 min)
# [5] = MN551 34.5716 nM, Cycle 15 (70 min), n=1
# [6] = MN551 34.5716 nM, Cycle 16 (75 min), n=1
# [7] = MN551 34.5716 nM, Cycle 17 (80 min), n=1
# [8] = MN551 34.5716 nM; Cycle 6 (25 min)
# [9] = MN551 34.5716 nM; Cycle 7 (30 min)
# [10] = MN551 34.5716 nM; Cycle 8 (35 min)
# [11] = MN551 34.5716 nM; Cycle 9 (40 min)
# [12] = MN551 34.5716 nM; Cycle 10 (45 min)
# [13] = MN551 34.5716 nM; Cycle 12 (55 min); n=1
# [14] = MN551 34.5716 nM; Cycle 13 (60 min); n=1
# [15] = MN551 34.5716 nM; Cycle 14 (65 min); n=1
# [16] = MN551 34.5716 nM; Cycle 15 (70 min); n=1
# [17] = MN551 34.5716 nM; Cycle 16 (75 min); n=1
# [18] = MN551 48.4003 nM, Cycle 8 (35 min)
# [19] = MN551 48.4003 nM, Cycle 9 (40 min)
# [20] = MN551 48.4003 nM, Cycle 10 (45 min)
# [21] = MN551 48.4003 nM, Cycle 11 (50 min)
# [22] = MN551 48.4003 nM, Cycle 15 (70 min), n=1
# [23] = MN551 48.4003 nM, Cycle 16 (75 min), n=1
# [24] = MN551 48.4003 nM, Cycle 17 (80 min), n=1
# [25] = MN551 48.4003 nM, Cycle 18 (85 min), n=1
# [26] = MN551 48.4003 nM; Cycle 6 (25 min)
# [27] = MN551 48.4003 nM; Cycle 7 (30 min)
# [28] = MN551 48.4003 nM; Cycle 8 (35 min)
smiles,measurement,setting,value
O=C(CCl)Nc1cccc(CNC(=O)[C@H](Cc2ccc(OP(=O)(O)O)cc2)NC(=O)Cc2ccc(F)cc2)c1 [MN551],"Anisotropy data 485,520,520",MN551 24.694 nM; Cycle 19 (90 min); n=1,275.7 and 272.1 and 271.5
same,"Anisotropy data 485,520,520",MN551 24.694 nM; Cycle 20 (95 min); n=1,276.4 and 273 and 271.9
same,Fb,"MN551 34.5716 nM, Cycle 7 (30 min)",0.9231 and 0.9524 and 0.9443
same,Anisotropy based on Raw Data (485),[1],272.8 and 277.1 and 280.8
same,Fb,[1],0.8869 and 0.9163 and 0.9381
same,Anisotropy based on Raw Data (485),[2],272.2 and 273.3 and 280.8
same,Fb,[2],0.8993 and 0.9292 and 0.9607
same,Anisotropy based on Raw Data (485),[3],272.1 and 276.8 and 279.5
same,Fb,[3],0.9166 and 0.9701 and 0.953
same,Anisotropy based on Raw Data (485),[4],271.9 and 272.2 and 277
same,Fb,[4],0.912 and 0.9155 and 0.9264
same,Anisotropy,"MN551 34.5716 nM, Cycle 13 (60 min), n=1",281.8 and 280.9 and 278.2
same,Anisotropy,"MN551 34.5716 nM, Cycle 14 (65 min), n=1",280.1 and 277.4 and 275.9
same,Anisotropy,[5],280 and 278.9 and 276.6
same,"Normalised anisotropy (0 nM MN551 = 1, free probe = 0)",[5],1.071 and 1.0408 and 1.031
same,Anisotropy,[6],279.2 and 276.9 and 274.1
same,"Normalised anisotropy (0 nM MN551 = 1, free probe = 0)",[6],1.035 and 1.039 and 1.006
same,Anisotropy,[7],276.8 and 275.1 and 276
same,"Normalised anisotropy (0 nM MN551 = 1, free probe = 0)",[7],1.038 and 1.014 and 1.054
same,"Fb, fraction bound",MN551 34.5716 nM; Cycle 3 (10 min),1.063 and 1.078 and 1.017
same,"Fb, fraction bound",MN551 34.5716 nM; Cycle 4 (15 min),1.071 and 1.037 and 1.072
same,"Fb, fraction bound",MN551 34.5716 nM; Cycle 5 (20 min),1.076 and 1.0403 and 1.068
same,"Anisotropy data 485,520,520",[8],275 and 271.2 and 273
same,Fb,[8],0.9618 and 0.9951 and 1.146
same,"Fb, fraction bound",[8],1.0603 and 1.052 and 1.045
same,"Anisotropy data 485,520,520",[9],274.7 and 271.9 and 270.8
same,Fb,[9],0.962 and 1.009 and 1.136
same,"Fb, fraction bound",[9],1.021 and 1.045 and 1.044
same,Anisotropy,[10],284.8 and 282 and 281
same,"Anisotropy data 485,520,520",[10],271.5 and 268.4 and 271.9
same,Fb,[10],0.9416 and 1.026 and 1.151 and 1.079 and 1.025 and 1.053
same,Anisotropy,[11],283.4 and 282.5 and 281.2
same,"Anisotropy data 485,520,520",[11],272.7 (2×) and 268.3
same,Fb,[11],0.9468 and 1.0081 and 1.143 and 1.074 and 1.0255 and 1.049
same,Anisotropy,[12],285.2 and 280.6 and 281.5
same,"Anisotropy data 485,520,520",[12],271 and 269.7 and 270.4
same,Fb,[12],0.9701 and 1.038 and 1.161 and 1.082 and 1.018 and 1.0508
same,Anisotropy,MN551 34.5716 nM; Cycle 11 (50 min); n=1,270.4 and 266.3 and 266.5
same,Anisotropy,[13],269 and 266.6 and 269.7
same,Anisotropy based on Raw Data (485),[13],271.9 and 273 and 279.7
same,Anisotropy,[14],270.8 and 265.4 and 266.7
same,Anisotropy based on Raw Data (485),[14],269.7 and 271.6 and 275.7
same,Anisotropy,[15],270.2 and 264.8 and 269.3
same,Anisotropy based on Raw Data (485),[15],270.3 and 272.6 and 275.5
same,Anisotropy,[16],268.1 and 263.8 and 265.3
same,Anisotropy based on Raw Data (485),[16],268.6 and 271.7 and 275.2
same,Anisotropy,[17],268.6 and 264 and 267.3
same,Anisotropy based on Raw Data (485),[17],270.6 and 272.2 and 274.4
same,"Anisotropy data 485,520,520",MN551 34.5716 nM; Cycle 19 (90 min); n=1,279.7 and 276.9 and 273.7
same,"Anisotropy data 485,520,520",MN551 34.5716 nM; Cycle 20 (95 min); n=1,278.1 and 275.2 and 274.7
same,Fb,"MN551 48.4003 nM, Cycle 7 (30 min)",0.8782 and 0.9246 and 0.9336
same,Anisotropy based on Raw Data (485),[18],278.2 and 278.9 and 277.3
same,Fb,[18],0.8787 and 0.899 and 0.9194
same,Anisotropy based on Raw Data (485),[19],277.6 and 275.5 and 276.7
same,Fb,[19],0.8575 and 0.9214 and 0.9234
same,Anisotropy based on Raw Data (485),[20],274.9 and 276 and 277.4
same,Fb,[20],0.88 and 0.9122 and 0.9097
same,Anisotropy based on Raw Data (485),[21],277.7 and 274.6 and 278.2
same,Fb,[21],0.8694 and 0.9078 and 0.9264
same,Anisotropy,"MN551 48.4003 nM, Cycle 13 (60 min), n=1",280.1 and 277 and 273
same,Anisotropy,"MN551 48.4003 nM, Cycle 14 (65 min), n=1",277.7 and 274.5 and 274.6
same,Anisotropy,[22],278.7 and 274.7 and 272
same,"Normalised anisotropy (0 nM MN551 = 1, free probe = 0)",[22],1.058 and 1.001 and 0.9865
same,Anisotropy,[23],277.5 and 275.2 and 272.2
same,"Normalised anisotropy (0 nM MN551 = 1, free probe = 0)",[23],1.019 and 1.022 and 0.9876
same,Anisotropy,[24],275.1 and 273.1 and 270.2
same,"Normalised anisotropy (0 nM MN551 = 1, free probe = 0)",[24],1.022 and 0.9942 and 0.9971
same,Anisotropy,[25],276.5 and 273.1 and 272
same,"Normalised anisotropy (0 nM MN551 = 1, free probe = 0)",[25],1.046 and 1.009 and 1.043
same,"Fb, fraction bound",MN551 48.4003 nM; Cycle 3 (10 min),1.04 and 1.0214 and 1.005
same,"Fb, fraction bound",MN551 48.4003 nM; Cycle 4 (15 min),1.046 and 1.006 and 1.039
same,"Fb, fraction bound",MN551 48.4003 nM; Cycle 5 (20 min),1.0163 and 1.003 and 1.023
same,"Anisotropy data 485,520,520",[26],272.2 and 270.3 and 272
same,Fb,[26],1.015 and 1.0265 and 1.112
same,"Fb, fraction bound",[26],1.049 and 1.012 and 1.014
same,"Anisotropy data 485,520,520",[27],269.8 and 269.1 and 269.7
same,Fb,[27],1.018 and 1.033 and 1.105
same,"Fb, fraction bound",[27],1.003 and 1.025 and 1.034
same,Anisotropy,[28],280.7 and 279.3 and 278.9
same,"Anisotropy data 485,520,520",[28],270.6 and 266.6 and 269.9
